# Measured values: PubChem BioAssay AID330 (DTP/NCI, 2004)
# The list shows only some results of the screen, not a fair sample: it is rich in T/C values a quarter to a half above the control, in often repeated tests (any T/C) and in doses without a T/C. Further doses and runs are listed elsewhere. T/C is the treated group as % of the vehicle group. Some doses have a count of surviving animals in place of a T/C: the source holds a T/C of zero for them, seemingly a mark for toxic or unscored doses. Some survivor counts are full or nearly so, which does not show that the dose was tolerated: survival well below the control is almost never listed, so the zero probably covers shortened survival too. Survivors were counted at the toxicity check, usually on the fifth day, unless a day is given; later deaths do not show. Schedule codes are those of the source, read here as Q, the interval in days (D) or hours (H), X, the number of doses. Counts like (3×) say how often a value occurs here. For survival time, the PubChem record calls one and a half times the control and up active, and a quarter to a half above the control has no call in these data; cut-offs in other NCI protocols can differ. Some entries hold several experiments; their values stand side by side, smallest first. Some T/C values are followed by the survivors on the day toxicity was checked, most often the fifth; without a count, all were alive then.
# Test system: P388 leukemia ip, CD2F1 mice, survival T/C
# Assay: NCI In Vivo Anticancer Drug Screen. Data for tumor model P388 Leukemia (intraperitoneal) in CD2F1 (CDF1) mice
# Details: T/C endpoint: median survival time, higher T/C = longer survival
# [1] = dose: 50.0 mg/kg/injection, schedule: Q01DX009 (ip), vehicle: saline with Tween-80
# [2] = dose: 100.0 mg/kg/injection, schedule: Q04DX003 (ip), vehicle: saline with Tween-80
structure (smiles),measurement,setting,value
CC(=O)[C@]1(O)Cc2c(O)c3c(c(O)c2[C@@H](OC2CC(N)C(O)C(C)O2)C1)C(=O)c1c(O)cccc1C3=O (stereo partly drawn),T/C,"dose: 0.05 mg/kg/injection, schedule: Q04DX003 (ip), vehicle: saline",127 % of control
same,T/C,"dose: 0.08 mg/kg/injection, schedule: Q04DX003 (ip), vehicle: saline",140 % of control
same,T/C,"dose: 0.08 mg/kg/injection, schedule: Q04DX003 (ip), vehicle: water",134 % of control
same,T/C,"dose: 0.13 mg/kg/injection, schedule: Q04DX003 (ip), vehicle: saline, evaluated on day 45",128 % of control
same,T/C,"dose: 0.13 mg/kg/injection, schedule: Q04DX003 (ip), vehicle: saline, evaluated on day 60",142 % of control
same,T/C,"dose: 0.13 mg/kg/injection, schedule: Q04DX003 (ip), vehicle: water",143 % of control
same,T/C,"dose: 0.14 mg/kg/injection, schedule: Q04DX003 (ip), vehicle: saline",136 % of control
same,T/C,"dose: 0.16 mg/kg/injection, schedule: Q01DX001 (ip), vehicle: saline",142 % of control
same,T/C,"dose: 0.16 mg/kg/injection, schedule: Q04DX003 (ip), vehicle: water",135 % of control
same,T/C,"dose: 0.2 mg/kg/injection, schedule: Q04DX003 (ip), vehicle: saline, evaluated on day 30",137 % of control
same,T/C,"dose: 0.2 mg/kg/injection, schedule: Q04DX003 (ip), vehicle: saline, evaluated on day 60",133 % of control
same,T/C,"dose: 0.21 mg/kg/injection, schedule: Q04DX003 (ip), vehicle: water",149 % of control
same,T/C,"dose: 0.22 mg/kg/injection, schedule: Q04DX003 (ip), vehicle: saline, evaluated on day 45",144 % of control
same,T/C,"dose: 0.22 mg/kg/injection, schedule: Q04DX003 (ip), vehicle: saline, evaluated on day 60",149 % of control
same,T/C,"dose: 0.23 mg/kg/injection, schedule: Q01DX009 (ip), vehicle: saline",131 % of control
same,T/C,"dose: 0.23 mg/kg/injection, schedule: Q04DX003 (ip), vehicle: saline",136 % of control
same,T/C,"dose: 0.26 mg/kg/injection, schedule: Q01DX001 (ip), vehicle: saline, evaluated on day 45",144 % of control
same,T/C,"dose: 0.26 mg/kg/injection, schedule: Q01DX001 (ip), vehicle: saline, evaluated on day 60",148 % of control
same,T/C,"dose: 0.4 mg/kg/injection, schedule: Q04DX003 (ip), vehicle: saline",127 % of control
same,T/C,"dose: 0.6 mg/kg/injection, schedule: Q04DX003 (ip), vehicle: saline",148 % of control
same,survivor count,"dose: 0.65 mg/kg/injection, schedule: Q01DX009 (ip), vehicle: saline",10 of 10
same,T/C,"dose: 0.8 mg/kg/injection, schedule: Q04DX003 (ip), vehicle: saline",142 % of control
same,T/C,"dose: 1.0 mg/kg/injection, schedule: Q04DX003 (ip), vehicle: water, evaluated on day 30",125 % of control
same,T/C,"dose: 1.0 mg/kg/injection, schedule: Q04DX003 (ip), vehicle: water, evaluated on day 35",128 % of control
same,survivor count,"dose: 1.2 mg/kg/injection, schedule: Q01DX001 (ip), vehicle: saline",10 of 10
same,T/C,"dose: 1.6 mg/kg/injection, schedule: Q04DX003 (ip), vehicle: saline",134 % of control
same,survivor count,"dose: 1.8 mg/kg/injection, schedule: Q01DX001 (ip), vehicle: saline",4 of 10
same,survivor count,"dose: 2.0 mg/kg/injection, schedule: Q01DX001 (ip), vehicle: saline",10 of 10
same,survivor count,"dose: 2.0 mg/kg/injection, schedule: Q04DX003 (ip), vehicle: saline",8 of 8
same,T/C,"dose: 2.0 mg/kg/injection, schedule: Q04DX003 (ip), vehicle: water",135 % of control
same,survivor count,"dose: 2.5 mg/kg/injection, schedule: Q04DX003 (ip), vehicle: saline",8 of 8
same,survivor count,"dose: 3.0 mg/kg/injection, schedule: Q01DX001 (ip), vehicle: saline",0 of 10
same,survivor count,"dose: 4.0 mg/kg/injection, schedule: Q04DX003 (ip), vehicle: water",8 of 8 on day 9 (2×)
same,T/C,"dose: 4.63 mg/kg/injection, schedule: Q04DX003 (oral), vehicle: saline",137 % of control
same,survivor count,"dose: 5.56 mg/kg/injection, schedule: Q01DX001 (oral), vehicle: saline",5 of 10
same,survivor count,"dose: 9.26 mg/kg/injection, schedule: Q01DX001 (oral), vehicle: saline",3 of 10
same,survivor count,"dose: 15.4 mg/kg/injection, schedule: Q01DX001 (oral), vehicle: saline",5 of 10
same,T/C,"dose: 7.0 micrograms/kg/injection, schedule: Q04DX003 (ip), vehicle: saline",127 % of control
same,T/C,"dose: 12.5 micrograms/kg/injection, schedule: Q04DX003 (ip), vehicle: saline",131 % of control
same,T/C,"dose: 100.0 micrograms/kg/injection, schedule: Q04DX003 (ip), vehicle: saline",125 % of control
same,T/C,"dose: 250.0 micrograms/kg/injection, schedule: Q04DX003 (ip), vehicle: saline",130 % of control
same,T/C,"dose: 400.0 micrograms/kg/injection, schedule: Q04DX003 (ip), vehicle: saline",130 % of control
same,T/C,"dose: 1600.0 micrograms/kg/injection, schedule: Q04DX003 (ip), vehicle: saline",144 % of control [5 of 6 alive on day 9]
CCCCCCC(=O)/C=C/c1ccc(OC(=O)c2ccc(Cl)cc2)cc1,survivor count,"dose: 50.0 mg/kg/injection, schedule: Q01DX009 (ip), vehicle: saline",6 of 6
CCN=C(N)Nc1ccc(NC(=O)c2ccc(C(=O)Nc3ccc(NC(N)=NCC)cc3)cc2)cc1,T/C,"dose: 12.5 mg/kg/injection, schedule: Q04DX003 (ip), vehicle: saline with Tween-80",140 % of control
same,survivor count,"dose: 25.0 mg/kg/injection, schedule: Q01DX009 (ip), vehicle: saline with Tween-80",6 of 6
same,survivor count,[1],6 of 6
same,survivor count,[2],6 of 6
O=C1C=CC(=O)C(Sc2cccc3ccccc23)=C1,survivor count,"dose: 25.0 mg/kg/injection, schedule: Q01DX005 (ip), vehicle: Klucel (hydroxypropylcellulose) (HPC)",6 of 6
C=COC(=O)N[C@H]1CCc2cc(OC)c(OC)c(OC)c2-c2ccc(SC)c(=O)cc21,T/C,"dose: 0.75 mg/kg/injection, schedule: Q01DX009 (ip), vehicle: Klucel (hydroxypropylcellulose) (HPC)",125 and 127 % of control
same,T/C,"dose: 1.5 mg/kg/injection, schedule: Q01DX009 (ip), vehicle: Klucel (hydroxypropylcellulose) (HPC)",128 and 141 % of control
same,survivor count,"dose: 6.0 mg/kg/injection, schedule: Q01DX009 (ip), vehicle: Klucel (hydroxypropylcellulose) (HPC)",6 of 6
CC1CN1P(=O)(N1CC2CCC(CC2)C1)N1CC1C (stereo not drawn),T/C,"dose: 33.0 mg/kg/injection, schedule: Q01DX009 (ip), vehicle: saline with Tween-80",129 % of control
same,T/C,[1],141 % of control
same,T/C,"dose: 75.0 mg/kg/injection, schedule: Q01DX009 (ip), vehicle: saline with Tween-80",133 % of control
same,survivor count,"dose: 400.0 mg/kg/injection, schedule: Q04DX003 (ip), vehicle: saline with Tween-80",4 of 6
O=C/C=C/n1ccccc1=S,survivor count,"dose: 40.0 mg/kg/injection, schedule: Q01DX001 (ip), vehicle: Klucel (hydroxypropylcellulose) (HPC)",3 of 6
same,survivor count,"dose: 80.0 mg/kg/injection, schedule: Q01DX001 (ip), vehicle: Klucel (hydroxypropylcellulose) (HPC)",0 of 6
same,survivor count,"dose: 160.0 mg/kg/injection, schedule: Q01DX001 (ip), vehicle: Klucel (hydroxypropylcellulose) (HPC)",3 of 6
same,survivor count,"dose: 320.0 mg/kg/injection, schedule: Q01DX001 (ip), vehicle: Klucel (hydroxypropylcellulose) (HPC)",0 of 6
CC1CCC23COC(=O)C2=CCCC3C12CC(c1ccoc1)OC2=O (stereo not drawn),survivor count,"dose: 0.25 mg/kg/injection, schedule: Q01DX009 (ip), vehicle: Klucel (hydroxypropylcellulose) (HPC)",6 of 6
CN(C)C1C(O)C2Oc3c(cc(O)c4c3C(=O)c3cc5c(c(O)c3C4=O)C(OCCBr)CC(C)(O)C5)C(C)(O2)C1O (stereo not drawn),survivor count,"dose: 32.0 mg/kg/injection, schedule: Q01DX009 (ip), vehicle: other",5 of 5
Cc1c([N+](=O)[O-])cc(Br)c2ccccc12,survivor count,"dose: 200.0 mg/kg/injection, schedule: Q01DX009 (ip), vehicle: water",6 of 6
same,survivor count,"dose: 400.0 mg/kg/injection, schedule: Q01DX009 (ip), vehicle: water",6 of 6
COc1cc(C=Nc2ccc(C(=O)O)cc2)ccc1N(CCCl)CCCl,T/C,"dose: 16.5 mg/kg/injection, schedule: Q04DX003 (ip), vehicle: saline with Tween-80",130 % of control
same,T/C,"dose: 25.0 mg/kg/injection, schedule: Q04DX003 (ip), vehicle: saline with Tween-80, evaluated on day 20",140 % of control [5 of 6 alive]
same,T/C,"dose: 25.0 mg/kg/injection, schedule: Q04DX003 (ip), vehicle: saline with Tween-80, evaluated on day 30",125 % of control [5 of 6 alive]
same,survivor count,[2],4 of 6
